Data as given in publication PMC10163288.
The other results are listed elsewhere or left out.

B1: il2ra_site2_3nfp_normal_mot_HHH_b2_01155_000000159_0001_38_52_H_._HHH_b2_02810_0001_0000200010_0000001_0 (protein)
chain: SSSSDEEVEEEVERLLEEAKKIEDRREVLKLLARALELAWENRDSELFMLIAEVAFELHKSSSSS
B2: il2ra_site1_2b5i_sap_10_mot_HHH_b2_00070_000000071_0001_43_56_H_._141e4e16e42c7d9bf1d4740829940245_0001_1_0001_0000600046_0000001_0_0001_af2pred_0001_af2pred_1 (protein)
chain: SSSSDDELVKEVDKLYLQASRAFLRGNPEEARELVEEALELARENNDEEIVRQLEEMLKLLSSSS
B3: il2ra_site2_3nfp_sap_19_mot_HHH_b1_06613_af2_000000098_0001_23_40_H_._72a79b14e1a0e827e78e129a6f5f8f0c_0001_1_0001_0000400032_0000001_0_0001_af2pred_0001_af2pre … (protein)
chain: SSSSDEEELRREVEELLERAKETEDPEERRLLLLLALDLALRNKDEELEELVKKVKEELGSSSSS
B4: il2ra_site2_3nfp_normal_mot_HHH_b2_01155_000000159_0001_38_52_H_._HHH_b2_02721_0001_0000400046_0000001_0 (protein)
chain: SSSDEEEERVEKLLEEAKELLERGDPEEAQEVLREATHLAYKLGNSELFFLIAELAFKILQSSSS
B5: il2ra_site2_2erj_sap_24_mot_4428453eb85d3cbdb794fa6b82d21c19_0001_000000044_0001_14_30_H_._7b66ed016c170d635ef469617b4fe817_0001_0001_0000200012_0000001_1_0001 (protein)
chain: SSSSSYEELRELMKLAAEARALAYEGNPEEAREILEEALRLARELNSDNAREVLERLLEELSSSS
B6: il2ra_site2_2erj_normal_mot_ems_3hC_1315_af2_000000245_0001_45_63_H_._HHH_b1_08295_0001_0000300032_0000001_0 (protein)
chain: SSSDEEEEEELEEFVEELVRKYGLDEYVKAFLRRLVKYALENGASEEIIKEALELSVRQVKSSSS
B7: il2ra_site1_3nfp_normal_mot_HHH_b2_00819_af2_000000158_0001_1_19_H_._HHH_b2_05746_0001_0000500011_0000001_0_af2pred_0001_af2pred (protein)
chain: SSSSSSSEELLEEAEKRLEELLREGDYKEALKLAEEVLRLLAKLGNPELAKELAELALKLSSSSS
B8: il2ra_site2_3nfp_normal_mot_HHH_b1_01086_000000225_0001_20_36_H_._HHH_b1_02572_0001_0000600045_0000001_1 (protein)
chain: SSSSDVEERVQELIEEIEEISDPERRKELLREATNLVYQIPDEEEAFRLFAALADLAAELFSSSS
B9: il2ra_site1_2b5i_normal_mot_f5ff40796168375b462bec8614a1db4a_0001_1_000000138_0001_53_65_H_._HHH_b2_05915_0001_0000600017_0000001_0_af2pred_dldesign_0_af2pred (protein)
chain: SSSSSSESPREVAERLIAEAEKEKDKNLAYKILKMALKVARKGNDPELAAEIEEKLKKISSSSSS
B10: il2ra_site2_3nfp_normal_mot_HHH_b1_06797_000000164_0001_24_40_H_._HHH_b2_07494_0001_0000200016_0000001_0 (protein)
chain: SSSSKAEEYLEAVRILLRRALELGDEEAARTSVHAALLLAEALRDEETVKELEEILEELNSSSSS
B11: il2ra_site2_2erj_normal_mot_HHH_b2_02154_af2_000000141_0001_43_57_H_._HHH_b1_05944_af2_0001_0000300035_0000001_0_af2pred_0001_1_af2pred_swapped (protein)
chain: SSSSSELEEFIEELVEKFNLSEEAERELRLLARLLLERGVDEEEIKLTLELLARMHEDQLSSSSS
B12: il2ra_site2_2erj_normal_mot_af86707857d369f3e1d85dcabc5f9321_0001_000000201_0001_14_29_H_._HHH_b2_03838_af2_0001_0000200004_0000001_1 (protein)
chain: SSSSSSSEEEEAEELTEEAKKIEDPEEALRVLSEAFALAYRVGDHELAAEVIELTHRLNSSSSSS
B13: il2ra_site1_2b5i_sap_24_mot_d0d27a57e4302dd0dd5ebafbde421892_0001_1_000000227_0001_37_51_H_._09e13f331d2c82047205c4dfe4f1b614_0001_1_af2_0001_0000200022_0000001 … (protein)
chain: SSSSSSDIDKVLAEARELAAAGRRREALELLEELYKEAGAKDDEENQEKIEDLARELASSSSSSS
B14: il2ra_site2_3nfp_normal_mot_HHH_b1_01289_000000235_0001_39_52_H_._HHH_b1_02970_af2_0001_0000100013_0000001_0 (protein)
chain: SSSSDEEESELIELAYEALRLAAEGNPEEAREVLEEALEIAEENGDPLAERIREFIEAFGSSSSS
B15: il2ra_site2_3nfp_sap_19_mot_HHH_b2_00992_af2_000000224_0001_1_18_H_._HHH_b2_03402_0001_0000100011_0000001_0_0001_af2pred_0001_1_af2pred_swapped (protein)
chain: SSSSSSSYKEAVEAALRFARKVEDEELVKIALEYARAVALMANDPELRELVEEAEERLSSSSSSS
B16: il2ra_site1_2b5i_sap_11_mot_HHH_b1_05608_000000027_0001_1_14_H_._HHH_b2_03832_af2_0001_0000100008_0000001_0_0001 (protein)
chain: SSSNERTFKAAERLLEEAIEDLREKGDEEVVEELEELLEEAKRKGDKRILREAMHVAQRALSSSS
B17: il2ra_site2_3nfp_sap_30_mot_HHH_b1_02813_000000037_0001_41_57_H_._ad6158629c6fd226c14646e2effd3054_0001_1_af2_0001_0000300022_0000001_0_0001 (protein)
chain: SSSSDLIEAVVESARHRLEKLNTEEAEELLERLEELLEEYREKGDPRIAIEVYELVRRIYSSSSS
B18: il2ra_site1_1z92_normal_mot_07d2d8a42fb0c6931fb03626c2a0eeb8_0001_000000072_0001_36_50_H_._f0ee23d083d0677da3dfcc8a6cd225b6_0001_af2_0001_0000100001_0000001_0 (protein)
chain: SEEEEEIEEEIKQVPDPVIREVLEILLRLIRLGDPSARFALEQLLKKLRQGNPRAARRIAEKLLR
B19: il2ra_site1_3nfp_sap_10_mot_HHH_b1_03420_af2_000000029_0001_41_57_H_._HHH_b2_06732_af2_0001_0000200008_0000001_0_0001_af2pred_0001_af2pred_1 (protein)
chain: SSSSDIEEAQELAKEVLKLLREGDKEEAEKVLEELEEIAEKRNSKVAKIFVERLKRLLERRSSSS
B20: il2ra_site1_3nfp_normal_mot_HHH_b1_05523_000000027_0001_1_19_H_._HHH_b1_07881_af2_0001_0000100003_0000001_0_af2pred_0001_af2pred_1 (protein)
chain: SSSSTEVSRRVLELIEEALELAQNGNPEEAEEVLREALKLAEEAGNESTARFIRKALEQSSSSSS
B21: il2ra_site2_2erj_normal_mot_HHH_b1_04373_af2_000000118_0001_18_33_H_._HHH_b2_03810_0001_0000100007_0000001_0 (protein)
chain: SSSSDDEELVRELLEEAEEAYEEGDLELVYELAVKALHVASKSNDPELQRLVAKFVEELASSSSS
B22: il2ra_site2_2erj_sap_28_mot_HHH_b1_06697_000000025_0001_41_54_H_._HHH_b1_07674_0001_0001200015_0000001_1_0001 (protein)
chain: SSSSSDVKEAYEEIAELLARAAHIKDPEEVRKLLEEAERLAEENNDPFARKYVEFARRDFSSSSS
B23: il2ra_site1_2b5i_normal_mot_HHH_b2_04910_000000118_0001_1_19_H_._HHH_b1_07445_0001_0000300015_0000001_0_af2pred_0001_af2pred_1 (protein)
chain: SSSSDEQRELLELLEQANRLDKNGDPEEAERLLEEALRLAEEAGSRALAKFLRVALRLLRSSSSS
B24: il2ra_site1_3nfp_normal_mot_HHH_b1_08274_000000052_0001_43_57_H_._HHH_b2_06250_0001_0000200010_0000001_0_af2pred_0001_af2pred_1 (protein)
chain: SSSSSSDAEEEVRELLEEARHIEDPREAERVFEEALEIARKYNDEEALKLIHEFIKEISSSSSSS

target: il2ra, P01589; assay: yeast display titration

Apparent Kd, inactive:
B1 no binding seen, B2 no binding seen, B3 no binding seen, B4 no binding seen, B5 no binding seen, B6 no binding seen, B7 no binding seen, B8 no binding seen, B9 no binding seen, B10 no binding seen, B11 no binding seen, B12 no binding seen, B13 no binding seen, B14 no binding seen, B15 no binding seen, B16 no binding seen, B17 no binding seen, B18 > 8.93 nM, B19 no binding seen, B20 no binding seen, B21 no binding seen, B22 no binding seen, B23 no binding seen, B24 no binding seen
